For the experiment, the target named is T1, Flag-VPS18 (pig (cloned from PAMs)) (UniProt F1SSU6).
T1 sequence: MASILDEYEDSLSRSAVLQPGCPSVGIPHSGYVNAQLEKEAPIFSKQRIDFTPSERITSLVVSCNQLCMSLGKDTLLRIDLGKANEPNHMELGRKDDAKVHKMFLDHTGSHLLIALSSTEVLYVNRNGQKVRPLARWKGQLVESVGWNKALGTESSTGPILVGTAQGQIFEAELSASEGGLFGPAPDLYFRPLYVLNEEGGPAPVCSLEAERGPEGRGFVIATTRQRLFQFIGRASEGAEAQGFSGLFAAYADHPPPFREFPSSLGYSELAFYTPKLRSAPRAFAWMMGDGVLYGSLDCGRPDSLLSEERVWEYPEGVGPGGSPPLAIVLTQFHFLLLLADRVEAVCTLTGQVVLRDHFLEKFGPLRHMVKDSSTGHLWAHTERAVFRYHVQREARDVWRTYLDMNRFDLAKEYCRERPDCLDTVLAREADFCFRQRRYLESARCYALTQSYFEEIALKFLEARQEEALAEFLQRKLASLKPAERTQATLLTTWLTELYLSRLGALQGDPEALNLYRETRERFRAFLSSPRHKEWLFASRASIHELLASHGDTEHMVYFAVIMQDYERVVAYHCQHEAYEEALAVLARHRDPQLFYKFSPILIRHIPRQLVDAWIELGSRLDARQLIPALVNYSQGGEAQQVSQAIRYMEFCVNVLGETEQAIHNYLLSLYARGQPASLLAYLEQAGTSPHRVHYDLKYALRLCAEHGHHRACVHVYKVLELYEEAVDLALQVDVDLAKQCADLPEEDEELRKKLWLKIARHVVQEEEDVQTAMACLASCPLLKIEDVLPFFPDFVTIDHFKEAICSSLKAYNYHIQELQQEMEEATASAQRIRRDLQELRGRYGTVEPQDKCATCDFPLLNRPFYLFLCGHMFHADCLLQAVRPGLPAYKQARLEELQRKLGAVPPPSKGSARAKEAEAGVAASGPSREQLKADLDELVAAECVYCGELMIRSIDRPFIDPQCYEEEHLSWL
Nature of the experiment: co-IP; HEK293T co-transfected with Flag-host protein and Myc-GP5 for 24 h, NP-40 lysate; anti-Flag M2 affinity gel 4 h at 4 °C, five washes; western blot. (In general: Immunoblotting shows a protein as a band on a membrane.)

Results are given in words; binding and its absence hold for the method and conditions named. In cells and extracts the contact can be indirect. Binding can be weak; no strength is given. Tags and fused reporters may be left off the sequences shown.

With Myc-GP5 (PRRSV Hn07-1 (Type 2 PRRSV)), the binding result is given as “binds”.

The values are drawn from article PMC10932240.
